No constants are given. Whether binding was seen depends on the method and setting. Binding seen in cells or lysates may run through a third protein. Some results given as binding are weak or reduced against the parent protein; the word gives no strength. Where a sequence is shown, tags or fusion partners need not be part of it. One block for each molecule: values may come before it.
Legend:
Experiment in all cases: co-IP; HEK293 cells co-transfected with epitope-tagged expression plasmids; lysates immunoprecipitated with anti-HA, anti-V5 or anti-Xpress antibodies (protein G beads) and immunoblotted with antibodies against the reciprocal epitope tag; controls with a single construct or empty vector
[1] = target: T1, Xpress-Magel2 (murine Magel2, epitope-tagged, from pcDNA4HisMaxXpressMagel2) (murine) (UniProt Q9QZ04)
T1 sequence: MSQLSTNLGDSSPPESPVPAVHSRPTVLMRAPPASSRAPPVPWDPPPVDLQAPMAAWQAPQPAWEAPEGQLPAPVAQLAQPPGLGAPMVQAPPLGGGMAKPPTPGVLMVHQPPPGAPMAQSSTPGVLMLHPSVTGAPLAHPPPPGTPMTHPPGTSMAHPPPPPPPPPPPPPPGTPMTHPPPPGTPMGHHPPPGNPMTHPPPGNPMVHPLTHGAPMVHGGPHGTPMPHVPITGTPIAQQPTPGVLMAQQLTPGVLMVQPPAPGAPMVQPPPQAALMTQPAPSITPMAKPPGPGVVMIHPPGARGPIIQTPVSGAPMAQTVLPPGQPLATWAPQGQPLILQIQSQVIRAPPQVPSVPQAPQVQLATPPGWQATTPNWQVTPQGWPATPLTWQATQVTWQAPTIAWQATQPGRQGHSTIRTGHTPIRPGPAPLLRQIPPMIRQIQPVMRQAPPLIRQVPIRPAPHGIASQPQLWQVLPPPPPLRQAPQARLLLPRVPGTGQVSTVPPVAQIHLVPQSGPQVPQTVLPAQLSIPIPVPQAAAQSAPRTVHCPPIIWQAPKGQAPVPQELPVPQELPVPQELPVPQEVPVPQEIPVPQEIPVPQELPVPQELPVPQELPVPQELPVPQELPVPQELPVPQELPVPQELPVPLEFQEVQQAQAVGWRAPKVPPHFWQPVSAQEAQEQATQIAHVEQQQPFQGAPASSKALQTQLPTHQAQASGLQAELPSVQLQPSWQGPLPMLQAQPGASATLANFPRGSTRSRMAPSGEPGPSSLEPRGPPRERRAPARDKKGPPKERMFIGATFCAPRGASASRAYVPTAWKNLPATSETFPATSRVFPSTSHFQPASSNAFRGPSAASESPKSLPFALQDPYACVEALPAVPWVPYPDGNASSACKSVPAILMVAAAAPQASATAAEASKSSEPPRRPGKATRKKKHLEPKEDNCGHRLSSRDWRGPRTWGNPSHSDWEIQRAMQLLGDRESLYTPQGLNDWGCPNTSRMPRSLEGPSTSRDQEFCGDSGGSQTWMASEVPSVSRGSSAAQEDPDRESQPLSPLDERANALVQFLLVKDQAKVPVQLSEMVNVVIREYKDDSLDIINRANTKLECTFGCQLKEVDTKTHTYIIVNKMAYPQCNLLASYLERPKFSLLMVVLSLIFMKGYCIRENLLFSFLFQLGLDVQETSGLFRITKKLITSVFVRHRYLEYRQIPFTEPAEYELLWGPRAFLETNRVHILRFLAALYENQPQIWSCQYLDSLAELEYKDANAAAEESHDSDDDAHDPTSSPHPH

By UniProt entry, the sequences of proteins in these tests, tags left out.
UniProt Q9WTL8: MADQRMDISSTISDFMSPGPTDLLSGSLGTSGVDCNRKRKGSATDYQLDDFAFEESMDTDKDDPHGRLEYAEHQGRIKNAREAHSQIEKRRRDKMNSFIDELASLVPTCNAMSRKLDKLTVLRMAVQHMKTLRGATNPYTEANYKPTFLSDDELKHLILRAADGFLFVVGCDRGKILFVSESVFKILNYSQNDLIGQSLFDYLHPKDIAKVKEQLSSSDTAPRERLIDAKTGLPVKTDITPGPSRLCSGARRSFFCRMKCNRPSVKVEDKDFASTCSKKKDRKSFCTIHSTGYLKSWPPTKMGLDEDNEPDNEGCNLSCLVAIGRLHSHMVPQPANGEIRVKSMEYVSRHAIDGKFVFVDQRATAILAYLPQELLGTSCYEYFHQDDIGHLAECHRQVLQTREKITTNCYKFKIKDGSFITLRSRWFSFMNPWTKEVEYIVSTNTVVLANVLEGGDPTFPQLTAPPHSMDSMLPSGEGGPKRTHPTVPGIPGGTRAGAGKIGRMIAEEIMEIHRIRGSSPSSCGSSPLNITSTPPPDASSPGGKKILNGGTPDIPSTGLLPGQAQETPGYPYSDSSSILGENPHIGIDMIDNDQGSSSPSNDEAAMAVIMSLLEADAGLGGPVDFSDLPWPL
UniProt O54943: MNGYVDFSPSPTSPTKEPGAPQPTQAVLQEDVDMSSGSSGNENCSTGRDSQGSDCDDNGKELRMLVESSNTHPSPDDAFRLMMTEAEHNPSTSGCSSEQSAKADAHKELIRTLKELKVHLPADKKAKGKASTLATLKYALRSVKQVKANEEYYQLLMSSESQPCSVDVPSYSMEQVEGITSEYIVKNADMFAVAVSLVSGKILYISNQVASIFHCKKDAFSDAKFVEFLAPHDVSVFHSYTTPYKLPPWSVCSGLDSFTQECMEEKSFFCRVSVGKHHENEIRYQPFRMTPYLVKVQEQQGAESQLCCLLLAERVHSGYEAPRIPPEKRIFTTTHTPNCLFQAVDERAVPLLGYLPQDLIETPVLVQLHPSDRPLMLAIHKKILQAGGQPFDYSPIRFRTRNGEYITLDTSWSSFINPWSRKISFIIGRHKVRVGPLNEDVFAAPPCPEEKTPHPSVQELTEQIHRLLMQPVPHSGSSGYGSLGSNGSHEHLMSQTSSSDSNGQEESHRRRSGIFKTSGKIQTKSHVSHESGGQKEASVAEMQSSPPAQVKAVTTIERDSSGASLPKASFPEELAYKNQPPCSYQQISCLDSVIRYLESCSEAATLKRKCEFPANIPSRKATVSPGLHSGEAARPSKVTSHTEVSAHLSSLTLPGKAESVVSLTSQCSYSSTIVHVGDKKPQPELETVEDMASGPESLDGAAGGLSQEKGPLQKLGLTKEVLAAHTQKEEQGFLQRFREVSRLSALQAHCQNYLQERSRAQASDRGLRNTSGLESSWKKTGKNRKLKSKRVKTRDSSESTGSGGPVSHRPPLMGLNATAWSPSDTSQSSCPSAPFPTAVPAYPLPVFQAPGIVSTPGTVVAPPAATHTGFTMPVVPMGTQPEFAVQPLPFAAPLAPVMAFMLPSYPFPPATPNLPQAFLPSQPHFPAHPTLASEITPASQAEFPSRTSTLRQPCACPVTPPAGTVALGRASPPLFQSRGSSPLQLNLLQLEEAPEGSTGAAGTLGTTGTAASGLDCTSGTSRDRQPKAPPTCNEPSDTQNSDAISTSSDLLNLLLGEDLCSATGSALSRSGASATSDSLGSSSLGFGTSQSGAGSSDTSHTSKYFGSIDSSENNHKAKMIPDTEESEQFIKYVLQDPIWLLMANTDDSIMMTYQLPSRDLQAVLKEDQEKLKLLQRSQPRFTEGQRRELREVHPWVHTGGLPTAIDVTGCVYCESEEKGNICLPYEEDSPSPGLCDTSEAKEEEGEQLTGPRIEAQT

[2] = target: HA-Bmal1 (murine Bmal1, from pcDNA3HABmal1) (murine) (UniProt Q9WTL8)
[3] = target: V5-Per2 (murine Per2, from pcDNA3.1Per2V5His) (murine) (UniProt O54943)

binding [1]: binds
Molecule: HA-Bmal1 (murine Bmal1, from pcDNA3HABmal1) (from UniProt Q9WTL8 1-632)

binding [2]: binds
binding [3]: binds
B1: Xpress-Magel2 (murine Magel2, epitope-tagged, from pcDNA4HisMaxXpressMagel2) (protein, UniProt Q9QZ04 1-1284)
chain: T1 sequence

Reference: publication PMC3278377
